PubChem BioAssay AID1224830, NIAID | 2016
The deposit covers about 18,000 reagents; shown is an unselected part. Of all reagents, about 2,900 (16%) were called active. 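Calls are made per well; low scores hint the gene aids the LPS response, high scores that it dampens it.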 Reagents against one gene are numbered here. Repeated entries: four replicate wells of each siRNA pool.

Purpose: 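Host factors that control LPS-induced TNF expression in human macrophages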 (primary screen)
Cells: human THP-1 monocytic leukaemia cells, TNF dual-luciferase reporter clone, PMA-differentiated to macrophage-like cells
Reagent: siRNA pool against human genes, 50 nM
Timing: LPS for 4 h, given about 3 days after siRNA transfection
Conditions: bacterial LPS (TLR4 ligand), 10 ng/ml
Read-out: 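TNF firefly reporter luminescence divided by renilla, normalised to the plate median, then turned into a robust z-score for each replicate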
Reading the numbers: TNF reporter robust z-score: higher = stronger TNF reporter response to LPS
Hit rule: 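Each well counts as active if its z-score is over 2.8 or under -1.5; controls are left without a call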

no.	Gene	pool no.	TNF reporter robust z-score	Outcome
1	XIAP	1	-0.74	inactive
2	XIAP	1	-0.98	inactive
3	XIAP	1	0.03	inactive
4	XIAP	1	1.87	inactive
5	COMMD9	1	0.73	inactive
6	COMMD9	1	1.55	inactive
7	COMMD9	1	2.86	active
8	COMMD9	1	2.59	inactive
9	COMMD9	2	0.18	inactive
10	COMMD9	2	1.24	inactive
11	COMMD9	2	1.14	inactive
12	COMMD9	2	0.67	inactive
13	SAMD15	1	0.92	inactive
14	SAMD15	1	-0.26	inactive
15	SAMD15	1	-0.28	inactive
16	SAMD15	1	-0.8	inactive
17	ZNF322	1		inactive
18	ZNF322	1	-0.76	inactive
19	ZNF322	1	-0.81	inactive
20	ZNF322	1	-0.92	inactive
21	ZNF322	1	-0.63	inactive
22	ARHGAP8	1	-0.07	inactive
23	ARHGAP8	1	0.21	inactive
24	ARHGAP8	1	-0.34	inactive
25	ARHGAP8	1	0.73	inactive
26	SPIDR	1	-0.31	inactive
27	SPIDR	1	0.61	inactive
28	SPIDR	1	1.01	inactive
29	SPIDR	1	1.58	inactive
30	RPL7A	1	1.34	inactive
31	RPL7A	1	0.95	inactive
32	RPL7A	1	0.25	inactive
33	RPL7A	1	-0.14	inactive
34	SERPINB8	1	-0.3	inactive
35	SERPINB8	1	0.12	inactive
36	SERPINB8	1	0.57	inactive
37	SERPINB8	1	0	inactive
38	SMARCA1	1	-1.68	active
39	SMARCA1	1	-1.9	active
40	SMARCA1	1	-1.85	active
41	SMARCA1	1	-2.02	active
42	TCEAL4	1	0.64	inactive
43	TCEAL4	1	0.32	inactive
44	TCEAL4	1	0.35	inactive
45	TCEAL4	1	0.12	inactive
46	UST	1	0.47	inactive
47	UST	1	0.78	inactive
48	UST	1	-0.06	inactive
49	UST	1	-0.24	inactive
50	YRDC	1	0.09	inactive
51	YRDC	1	-0.11	inactive
52	YRDC	1	-0.17	inactive
53	ZNF648	1	-0.44	inactive
54	ZNF648	1	-1.02	inactive
55	ZNF648	1	-0.37	inactive
56	ZNF648	1	-0.59	inactive
57	RIMS1	1	1.44	inactive
58	RIMS1	1	2.14	inactive
59	RIMS1	1	0.13	inactive
60	RIMS1	1	2.02	inactive
61	SDHB	1	0.43	inactive
62	SDHB	1	0.59	inactive
63	SDHB	1	2.04	inactive
64	SDHB	1	-0.18	inactive
65	CYP3A4	1	0.27	inactive
66	CYP3A4	1	-0.61	inactive
67	CYP3A4	1	0.14	inactive
68	PUM2	1	0.43	inactive
69	PUM2	1	-0.52	inactive
70	PUM2	1	-0.23	inactive
71	PUM2	1	0.47	inactive
72	PLA2G2E	1	-0.93	inactive
73	PLA2G2E	1	-0.44	inactive
74	PLA2G2E	1	0.3	inactive
75	PLA2G2E	1	-0.09	inactive
76	SRRM3	1	-0.95	inactive
77	SRRM3	1	-0.97	inactive
78	SRRM3	1	-0.18	inactive
79	SRRM3	1	-0.69	inactive
80	LGALS7B	1	0.3	inactive
81	LGALS7B	1	-0.43	inactive
82	LGALS7B	1	-0.7	inactive
83	LGALS7B	1	-0.09	inactive
84	CST9	1	1.11	inactive
85	CST9	1	0.18	inactive
86	CST9	1	1.05	inactive
87	CST9	1	0.93	inactive
88	AGAP3	1	0.27	inactive
89	AGAP3	1	1.46	inactive
90	AGAP3	1	1.85	inactive
91	AGAP3	1	0.38	inactive
92	BTBD2	1	0.39	inactive
93	BTBD2	1	0.3	inactive
94	BTBD2	1	-0.12	inactive
95	BTBD2	1	0.45	inactive
96	MRPS18C	1	-1.94	active
97	MRPS18C	1	-1.46	inactive
98	MRPS18C	1	-1.23	inactive
99	MRPS18C	1	-1.27	inactive
100	GABRD	1	-1.41	inactive
101	GABRD	1	0.99	inactive
102	GABRD	1	0.4	inactive
103	GABRD	1	-0.08	inactive
104	SPATA31D1	1	-0.89	inactive
105	SPATA31D1	1	-0.81	inactive
106	SPATA31D1	1	-0.12	inactive
107	SPATA31D1	1	-0.61	inactive
108	GRHL3	1	0.75	inactive
109	GRHL3	1	0.7	inactive
110	GRHL3	1	0.39	inactive
111	GRHL3	1	0.15	inactive
